Measured values published in PubChem BioAssay AID488837 (National Center for Advancing Translational Sciences (NCATS), 2010).
Among all 330,000 compounds or so, about 20 (0.006%) were called active. The shares of active, inactive and inconclusive entries below differ from those in the screen. Calls follow the shape of the dose curve; as a rule, active = well fitted inhibition curve with a large enough effect; inconclusive = small, poorly fitted or top-dose-only effect, or effect the other way; inactive = flat fitted curve, though single readings scatter. Potencies beside an inconclusive call are fits to weak or partial responses and may not hold up.

Chains of the proteins cited; added tags and fusions are not shown. Lines headed by an entry give the natural chain unless they say otherwise; changes in a name come on top.
UniProt O00167: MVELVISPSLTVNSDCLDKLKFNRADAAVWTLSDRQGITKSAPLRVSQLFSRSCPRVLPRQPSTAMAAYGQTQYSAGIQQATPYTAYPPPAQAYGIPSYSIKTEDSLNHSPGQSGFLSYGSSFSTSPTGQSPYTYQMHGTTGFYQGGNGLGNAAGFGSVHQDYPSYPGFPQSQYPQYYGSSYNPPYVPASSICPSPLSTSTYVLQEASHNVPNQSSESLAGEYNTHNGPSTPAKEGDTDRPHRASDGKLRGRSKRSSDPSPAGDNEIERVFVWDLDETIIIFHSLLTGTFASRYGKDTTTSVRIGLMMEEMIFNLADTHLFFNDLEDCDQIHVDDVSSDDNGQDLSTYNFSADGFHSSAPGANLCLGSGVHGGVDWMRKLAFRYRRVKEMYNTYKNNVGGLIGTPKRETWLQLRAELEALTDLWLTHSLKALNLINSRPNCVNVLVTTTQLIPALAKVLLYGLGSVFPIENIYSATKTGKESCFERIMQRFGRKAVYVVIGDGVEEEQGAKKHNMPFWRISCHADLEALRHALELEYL

Target: Protein phosphatase EYA2 (Homo sapiens) (UniProt O00167)
Experiment: qHTS Assay for Inhibitors of the Phosphatase Activity of Eya2
Settings: recombinant Eya2, OMFP fluorescence dephosphorylation (OMFP is methylfluorescein phosphate); activity, negative = inhibition: at 76.9 µM (top of the series) unless noted
In short: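 Eya2 protein (added as 0.2 uM solution) was preincubated with compound for 10 min at ambient temperature in 50 mM HEPES pH 7.5, 50 mM NaCl, 5 uM MgCl2, 0.05% BSA, 1 mM DTT. OMFP (added at 50 uM) then reacted 10 min; fluorescence read at 485/525 nm.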
% is scaled to controls: 0 for no effect and ±100 for the full control effect; potency is read from the fitted curve at half-maximal effect.

CC(C)(C)C(=O)Nc1nc(NC(=O)C(C)(C)C)nc(-c2ccccc2Cl)n1 was tested. Which Potency did it give?
Its Potency is inconclusive: 178 µM [inhibitor, partial curve].

With Cc1ccc(S(=O)(=O)N2CCN(c3ccccc3)CC2)cc1C(N)=O as the molecule, how does the Potency read?
The Potency was “inactive”.

How did the Potency turn out when C=CCC1(C#N)C(=S)NC(C)=C(C(=O)OCC)C1c1ccccc1 (stereo unspecified) was run?
The Potency was inconclusive: 20 µM [inhibitor, partial curve].

For Cc1ccc(N=Cc2sc(O)c3ccccc23)cc1, which Potency is on record?
Its Potency is inconclusive: 31.6 µM [activator, partial curve].

With Cc1ccccc1NC(=S)NCCC(c1ccccc1)c1ccccc1 as the molecule, how does the Potency read?
The Potency was inconclusive: 44.7 µM [inhibitor, single point].

S=C(Nc1ccc(Cl)cc1)c1nc2ccccc2[nH]1 was tested. Which Potency did it give?
The Potency was “inactive”.

How did the Potency turn out when Cn1nccc1NC(=O)NC(=O)c1c(Cl)cccc1Cl was run?
Its Potency is inconclusive: 100 µM [inhibitor, single point].

Which Potency does the source give for Cc1nc(NC(=O)CSc2nnc(C3CC3)n2N)c(Cl)cc1Cl here?
Its Potency is inconclusive: 63.1 µM [inhibitor, partial curve, poor fit].

With C=C(C)Cc1c(C)c(C#N)c2[nH]c3ccccc3n2c1=O as the molecule, how does the Potency read?
Its Potency is inconclusive: 631 µM [inhibitor, single point].

How did the Potency turn out when COc1cc(/C=N/NC(=O)CN(Cc2ccco2)S(=O)(=O)c2ccccc2)ccc1O was run?
Its Potency is “inactive”.

For O=c1c2ccccc2nc2c3ccccc3c(NCCO)nn12, which Potency is on record?
Its Potency is “inactive”.

For C/C(=N\Nc1ccc([N+](=O)[O-])cc1[N+](=O)[O-])c1cccnc1, which Potency is on record?
Its Potency is inconclusive: 89.1 µM [inhibitor, single point].

CC(=O)c1ccc(NC(=O)CSc2nnc(NC(=O)C3CC3)s2)cc1 was tested. Which Potency did it give?
The Potency was “inactive”.

For Cc1cc(O)cc2c(=O)c3ccccc3sc12, which Potency is on record?
Its Potency is “inactive”.

How did the Potency turn out when COc1cc(NC(=O)c2ccnc(N)c2)cc(C(=O)Nc2cccc(C(F)(F)F)c2)c1 was run?
The Potency was inconclusive: 112 µM [inhibitor, single point].

COC(=O)c1ccc(C23CC4(C2)[C@H](CN(C)[C@@H]4c2ccccc2)C3c2ccc(C(F)(F)F)cc2)cc1 (stereo partly specified) was tested. Which Potency did it give?
Its Potency is inconclusive: 22.4 µM [inhibitor, single point].

How did the Potency turn out when COc1ccc(S(=O)(=O)N(C)CC(=O)NC2CC2)cc1OC was run?
The Potency was inconclusive: 20 µM [inhibitor, single point].

Which Potency does the source give for O=C(c1ccc(-n2cncn2)c([N+](=O)[O-])c1)N1CCN(S(=O)(=O)c2ccccc2Br)CC1 here?
The Potency was inconclusive: 126 µM [activator, partial curve].

COc1ccc(NS(=O)(=O)c2c(C)n(C)c(=O)n(C)c2=O)cc1OC was tested. Which Potency did it give?
Its Potency is “inactive”.

How did the Potency turn out when CC1CN(c2nc3ccccc3cc2-c2ccccc2)CC(C)O1 (stereo unspecified) was run?
Its Potency is inconclusive: 100 µM [inhibitor, single point].

With CCN(CC)C(=O)c1c2c(nc3ccccc13)-c1ccccc1CC2 as the molecule, how does the Potency read?
Its Potency is “inactive”.

How did the Potency turn out when CCN(CC)C(=O)c1ccc(COc2ccc(Cl)c(C)c2)o1 was run?
The Potency was “inactive”.

How did the activity, negative = inhibition turn out when CCn1c(SCC(=O)NCCc2ccc(F)cc2)nnc1-c1cccs1 was run?
Its activity, negative = inhibition is inconclusive: 30.7% [activator].

With Cc1ccccc1-n1ncc2c(SCC(=O)NC3CCCC3)ncnc21 as the molecule, how does the Potency read?
Its Potency is inconclusive: 63.1 µM [inhibitor, partial curve].

Which Potency does the source give for COc1cc(C(=O)OCC(=O)NC2CC2)ccc1OCCC(C)C here?
The Potency was inconclusive: 100 µM [inhibitor, single point].

How did the Potency turn out when Cc1cc2c(cc1S(=O)(=O)CCC(=O)N1CC(C)CC(C)C1)OCC(=O)N2 (stereo unspecified) was run?
Its Potency is inconclusive: 15.8 µM [inhibitor, single point].

For Cc1ccccc1-n1ncc2c(SCC(=O)N3c4ccccc4CC3C)ncnc21 (stereo unspecified), which Potency is on record?
Its Potency is inconclusive: 20 µM [inhibitor, single point].

Which Potency does the source give for O=C(/C=C/Nc1ccc(F)cc1F)c1ccco1 here?
The Potency was inconclusive: 112 µM [inhibitor, single point].

For CCC1CCCCN1C(=O)c1cc(COc2ccc3ncccc3c2)on1 (stereo unspecified), which Potency is on record?
Its Potency is “inactive”.

For Cc1ccc(S(=O)(=O)Oc2cccc(N3C(=O)C4CC=CCC4C3=O)c2)cc1 (stereo unspecified), which Potency is on record?
Its Potency is inconclusive: 15.8 µM [inhibitor, single point].

How did the Potency turn out when Cc1ccc2c(c1C)NC(C(=O)O)C1CC=CC21 (stereo unspecified) was run?
Its Potency is “inactive”.

How did the Potency turn out when COC(=O)c1ccc(C23CC4(C2)[C@H](CN(Cc2cccnc2)[C@@H]4c2ccccc2)C3c2ccccc2)cc1 (stereo partly specified) was run?
The Potency was inconclusive: 126 µM [inhibitor, single point].

Cc1c(NC(=O)/C(C#N)=C/c2ccccc2)c(=O)n(-c2ccccc2)n1C was tested. Which Potency did it give?
Its Potency is inconclusive: 447 µM [inhibitor, single point].

Cn1c(CCCNC(=O)c2cccs2)nc2ccccc21 was tested. Which Potency did it give?
The Potency was inconclusive: 12.6 µM [inhibitor, single point].

How did the Potency turn out when CC(C)[C@H](NC(=O)c1ccc(Cl)cc1Cl)C(=O)NNc1cccc(C(=O)O)c1 was run?
Its Potency is inconclusive: 14.1 µM [inhibitor, single point].

How did the Potency turn out when Nc1ccccc1S(N)(=O)=O was run?
Its Potency is inconclusive: 12.6 µM [inhibitor, single point].

Which Potency does the source give for COC(OC)c1ccc(C#N)c(SCc2ccccc2)n1 here?
Its Potency is inconclusive: 100 µM [inhibitor, single point].

For FC(F)(F)c1cc(Oc2ccccc2)nc(-c2ccccn2)n1, which Potency is on record?
Its Potency is inconclusive: 22.4 µM [inhibitor, single point].

For N#C/C(=C/c1ccc(N2CCCCC2)o1)C(=O)Nc1ccc(Cl)cc1, which Potency is on record?
The Potency was inconclusive: 6.31 µM [activator, full curve].

With Cc1ccc(CS(=O)(=O)c2ccc(C(=O)N3CCCCC3)cc2[N+](=O)[O-])cc1 as the molecule, how does the Potency read?
The Potency was “inactive”.

Which Potency does the source give for Cc1ccc(C)n1CCN1CCN(C(=O)c2ccc(Cl)cc2)CC1 here?
The Potency was inconclusive: 70.8 µM [inhibitor, single point].

With O=C(O)/C=C\c1cc2c(cc1[N+](=O)[O-])OCO2 as the molecule, how does the Potency read?
Its Potency is inconclusive: 63.1 µM [inhibitor, partial curve, poor fit].

CCCCn1c(=O)nc2n(-c3ccccc3)c3ccccc3cc-2c1=O was tested. Which Potency did it give?
Its Potency is “inactive”.

With Cc1nn(C)c(C)c1N1C(=O)c2cccc3c(N)ccc(c23)C1=O as the molecule, how does the Potency read?
The Potency was inconclusive: 39.8 µM [activator, partial curve].

CNc1nc(-c2ccccn2)nnc1-c1ccccc1 was tested. Which Potency did it give?
The Potency was “inactive”.

Which Potency does the source give for Cc1csc(NC(=O)c2ccc(C(=O)Nc3nc(C)cs3)cc2)n1 here?
Its Potency is inconclusive: 355 µM [inhibitor, partial curve, poor fit].

For Cc1nc([N+](=O)[O-])cn1CC(=O)Nc1ccc(F)c(Cl)c1, which Potency is on record?
Its Potency is inconclusive: 178 µM [inhibitor, single point].

How did the Potency turn out when O=c1cc(-c2ccccc2Cl)oc2c(NS(=O)(=O)c3ccccc3C(F)(F)F)ccc(O)c12 was run?
Its Potency is “inactive”.

Which Potency does the source give for Cn1nc(C(F)(F)F)c(C(=O)Nc2ccc(F)cc2F)c1Sc1cccc(Cl)c1 here?
The Potency was inconclusive: 28.2 µM [inhibitor, single point].

With CCCCOC(=O)Nc1cccc(C(=O)OCC)c1 as the molecule, how does the Potency read?
Its Potency is inconclusive: 89.1 µM [inhibitor, partial curve].

For Cc1cc(=O)oc2c(CN3CCCC3)c(O)ccc12, which Potency is on record?
The Potency was “inactive”.

For O=C(c1ccc(-c2ccc([N+](=O)[O-])cc2)o1)N1CCCCC1, which Potency is on record?
The Potency was “inactive”.

How did the Potency turn out when Cc1ccc(C2=C(O)c3ccccc3C(=O)C2=O)cc1 was run?
Its Potency is inconclusive: 282 µM [inhibitor, single point].

With CC(=O)Nc1ccc(NC(=O)CCn2c(=O)oc3ccccc32)cc1 as the molecule, how does the Potency read?
Its Potency is inconclusive: 316 µM [inhibitor, single point].

How did the Potency turn out when C=CCSc1nsc(N)n1 was run?
The Potency was inconclusive: 28.2 µM [inhibitor, single point].

With CCCCCCCCCCOC(=O)Cn1c(COc2ccc(OC)cc2)[n+](C)c2ccccc21 as the molecule, how does the Potency read?
Its Potency is inconclusive: 200 µM [inhibitor, partial curve, poor fit].

With Cc1cc(NC(=O)Nc2ccc(Cl)cc2)n(C(C)(C)C)n1 as the molecule, how does the Potency read?
Its Potency is “inactive”.

With COc1cc2nc(SCc3ccc(Cl)cc3Cl)n(Cc3cccs3)c(=N)c2cc1OC as the molecule, how does the Potency read?
Its Potency is inconclusive: 22.4 µM [inhibitor, single point].

Cc1c(Br)c(=O)oc2c(Br)c(O)ccc12 was tested. Which Potency did it give?
Its Potency is “inactive”.

NC(=O)COC(=O)c1cc(-c2ccco2)nc2ccccc12 was tested. Which Potency did it give?
The Potency was “inactive”.

How did the Potency turn out when O=C(N/N=C/c1cccc([N+](=O)[O-])c1)c1cccc2cc[nH]c12 was run?
Its Potency is inconclusive: 56.2 µM [inhibitor, partial curve, poor fit].

For COc1ccc(S(=O)(=O)NC2CCc3ccccc32)cc1OC (stereo unspecified), which Potency is on record?
Its Potency is inconclusive: 141 µM [inhibitor, partial curve].

For CCCc1cc(=O)[nH]c(-n2[nH]c3c(c2=O)CCCC3)n1, which Potency is on record?
The Potency was inconclusive: 25.1 µM [activator, partial curve].

Cc1ccc(N(C(=O)c2snc(C(N)=O)c2N)C(C(=O)NC2CCCC2)c2ccc(C)o2)cc1 (stereo unspecified) was tested. Which Potency did it give?
Its Potency is “inactive”.

With CCOC(=O)c1c(NC(C)=O)sc(/C(C)=N/Nc2ccc(C(=O)O)cc2)c1C as the molecule, how does the Potency read?
The Potency was inconclusive: 100 µM [inhibitor, single point].

With COc1ccc(/C=C/c2c(-c3ccc(OC)cc3)oc3ccccc23)cc1 as the molecule, how does the Potency read?
Its Potency is “inactive”.

With CCC1=C(OC(=O)N(CC)CC)N2C(=O)OC(=NCC(=O)OC)[C@]2(C)[C@H]2C1=CC[C@H]1C(=O)N(C)C(=O)[C@H]12 as the molecule, how does the Potency read?
Its Potency is inconclusive: 22.4 µM [inhibitor, single point].

With COc1ccc(N2CC(C(=O)N/N=C/c3c[nH]c4ccccc34)CC2=O)cc1 (stereo unspecified) as the molecule, how does the Potency read?
Its Potency is “inactive”.

For CCCn1c(NCc2cccc(OC)c2OC)nc2ccccc21, which Potency is on record?
The Potency was inconclusive: 50.1 µM [inhibitor, partial curve, poor fit].

How did the Potency turn out when Cc1ccc(/C=N/NC(=O)c2cccnc2)o1 was run?
Its Potency is inconclusive: 22.4 µM [inhibitor, single point].

Which Potency does the source give for COc1cccc(-n2c(SCC(=O)Nc3cc(C)on3)nc3ccccc3c2=O)c1 here?
Its Potency is “inactive”.
